Measurements published in the supplement of paper PMC10849652.
The other results are listed elsewhere or left out.

Chains of the proteins cited; added tags and fusions are not shown. Lines headed by an entry give the natural chain unless they say otherwise; changes in a name come on top.
UniProt Q562E7: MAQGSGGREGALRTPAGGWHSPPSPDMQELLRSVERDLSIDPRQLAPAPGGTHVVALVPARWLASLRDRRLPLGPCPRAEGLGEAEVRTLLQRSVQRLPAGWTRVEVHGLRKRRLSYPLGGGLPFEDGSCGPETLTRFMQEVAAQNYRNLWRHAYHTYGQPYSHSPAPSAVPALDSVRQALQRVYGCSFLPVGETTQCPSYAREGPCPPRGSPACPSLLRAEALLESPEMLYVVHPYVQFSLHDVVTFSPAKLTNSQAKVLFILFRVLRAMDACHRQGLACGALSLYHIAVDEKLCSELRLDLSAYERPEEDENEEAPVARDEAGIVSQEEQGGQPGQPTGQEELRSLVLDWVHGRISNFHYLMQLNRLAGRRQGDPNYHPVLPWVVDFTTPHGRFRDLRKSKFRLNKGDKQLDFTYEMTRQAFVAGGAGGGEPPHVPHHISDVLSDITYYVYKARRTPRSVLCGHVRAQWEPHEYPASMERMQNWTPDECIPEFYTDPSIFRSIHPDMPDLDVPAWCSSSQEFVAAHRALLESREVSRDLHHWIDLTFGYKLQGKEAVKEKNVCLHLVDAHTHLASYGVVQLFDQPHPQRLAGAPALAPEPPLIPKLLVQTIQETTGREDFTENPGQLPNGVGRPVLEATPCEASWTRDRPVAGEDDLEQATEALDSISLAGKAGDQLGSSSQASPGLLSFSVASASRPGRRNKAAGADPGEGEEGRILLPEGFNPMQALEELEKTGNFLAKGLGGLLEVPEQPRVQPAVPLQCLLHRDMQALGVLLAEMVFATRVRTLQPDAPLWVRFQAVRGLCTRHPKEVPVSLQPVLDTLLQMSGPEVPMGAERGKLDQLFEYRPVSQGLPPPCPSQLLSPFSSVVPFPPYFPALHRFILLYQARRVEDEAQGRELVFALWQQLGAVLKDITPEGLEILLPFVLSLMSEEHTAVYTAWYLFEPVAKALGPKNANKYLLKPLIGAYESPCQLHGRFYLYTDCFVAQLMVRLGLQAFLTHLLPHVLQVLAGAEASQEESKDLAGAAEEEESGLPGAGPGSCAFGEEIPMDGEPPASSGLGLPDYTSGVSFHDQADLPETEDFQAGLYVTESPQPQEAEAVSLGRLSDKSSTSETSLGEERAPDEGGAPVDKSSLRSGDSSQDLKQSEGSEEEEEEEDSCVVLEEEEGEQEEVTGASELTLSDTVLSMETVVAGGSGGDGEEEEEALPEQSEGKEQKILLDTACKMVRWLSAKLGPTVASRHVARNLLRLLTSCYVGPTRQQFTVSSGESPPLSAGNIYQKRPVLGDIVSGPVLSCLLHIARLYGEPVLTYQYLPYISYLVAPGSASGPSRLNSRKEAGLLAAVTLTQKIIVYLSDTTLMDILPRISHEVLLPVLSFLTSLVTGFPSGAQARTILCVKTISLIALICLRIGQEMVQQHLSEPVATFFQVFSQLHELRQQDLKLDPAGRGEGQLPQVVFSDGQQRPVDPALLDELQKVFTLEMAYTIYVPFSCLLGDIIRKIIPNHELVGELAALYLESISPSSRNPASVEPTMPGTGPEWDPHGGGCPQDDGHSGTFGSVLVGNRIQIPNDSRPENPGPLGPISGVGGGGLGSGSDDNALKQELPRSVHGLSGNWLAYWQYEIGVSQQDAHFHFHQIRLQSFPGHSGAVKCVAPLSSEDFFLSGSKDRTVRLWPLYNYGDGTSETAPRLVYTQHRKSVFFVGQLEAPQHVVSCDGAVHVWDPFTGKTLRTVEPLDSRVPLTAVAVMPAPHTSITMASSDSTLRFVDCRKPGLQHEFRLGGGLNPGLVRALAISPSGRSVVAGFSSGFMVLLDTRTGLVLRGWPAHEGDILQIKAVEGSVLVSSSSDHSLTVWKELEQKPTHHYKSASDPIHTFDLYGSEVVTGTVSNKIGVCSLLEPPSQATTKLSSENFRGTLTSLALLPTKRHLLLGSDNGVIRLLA
UniProt Q15007: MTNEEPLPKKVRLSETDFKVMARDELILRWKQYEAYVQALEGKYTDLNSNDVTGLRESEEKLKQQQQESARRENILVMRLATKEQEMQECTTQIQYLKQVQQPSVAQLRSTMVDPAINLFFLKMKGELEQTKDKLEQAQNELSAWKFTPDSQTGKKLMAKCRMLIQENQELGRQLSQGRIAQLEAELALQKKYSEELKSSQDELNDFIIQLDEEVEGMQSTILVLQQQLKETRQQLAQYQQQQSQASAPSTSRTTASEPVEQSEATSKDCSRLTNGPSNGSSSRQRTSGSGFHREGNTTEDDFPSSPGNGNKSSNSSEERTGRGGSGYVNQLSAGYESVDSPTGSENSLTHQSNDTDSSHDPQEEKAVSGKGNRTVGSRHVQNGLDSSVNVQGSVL
UniProt P57081: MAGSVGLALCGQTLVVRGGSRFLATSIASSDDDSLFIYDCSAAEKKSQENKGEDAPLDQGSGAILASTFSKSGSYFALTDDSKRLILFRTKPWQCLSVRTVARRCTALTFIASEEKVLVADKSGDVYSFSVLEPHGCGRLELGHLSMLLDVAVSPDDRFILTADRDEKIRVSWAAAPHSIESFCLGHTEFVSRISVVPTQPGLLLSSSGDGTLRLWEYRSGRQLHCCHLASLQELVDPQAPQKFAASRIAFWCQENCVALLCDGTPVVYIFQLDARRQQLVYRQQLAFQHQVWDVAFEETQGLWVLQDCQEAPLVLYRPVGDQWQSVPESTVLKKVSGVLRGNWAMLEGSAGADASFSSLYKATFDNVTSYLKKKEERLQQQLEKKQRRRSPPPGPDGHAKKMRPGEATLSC
UniProt Q9BTA9: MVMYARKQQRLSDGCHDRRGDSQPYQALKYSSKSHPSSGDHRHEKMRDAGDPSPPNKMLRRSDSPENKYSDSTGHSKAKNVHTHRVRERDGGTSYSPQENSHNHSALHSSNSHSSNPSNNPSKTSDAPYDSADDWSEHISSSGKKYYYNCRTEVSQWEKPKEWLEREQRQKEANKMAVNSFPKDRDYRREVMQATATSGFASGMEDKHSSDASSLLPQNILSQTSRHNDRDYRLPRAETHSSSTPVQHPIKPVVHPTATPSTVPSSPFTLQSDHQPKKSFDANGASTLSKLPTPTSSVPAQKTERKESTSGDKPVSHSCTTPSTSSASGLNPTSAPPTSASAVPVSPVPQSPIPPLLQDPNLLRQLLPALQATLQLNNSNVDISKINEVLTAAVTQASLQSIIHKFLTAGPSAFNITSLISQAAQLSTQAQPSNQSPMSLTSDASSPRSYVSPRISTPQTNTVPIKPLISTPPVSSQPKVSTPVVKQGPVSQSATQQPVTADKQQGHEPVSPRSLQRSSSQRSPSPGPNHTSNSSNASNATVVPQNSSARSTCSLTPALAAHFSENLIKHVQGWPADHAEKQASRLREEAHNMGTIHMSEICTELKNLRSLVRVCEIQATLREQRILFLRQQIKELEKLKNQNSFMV
UniProt Q9P1Q0: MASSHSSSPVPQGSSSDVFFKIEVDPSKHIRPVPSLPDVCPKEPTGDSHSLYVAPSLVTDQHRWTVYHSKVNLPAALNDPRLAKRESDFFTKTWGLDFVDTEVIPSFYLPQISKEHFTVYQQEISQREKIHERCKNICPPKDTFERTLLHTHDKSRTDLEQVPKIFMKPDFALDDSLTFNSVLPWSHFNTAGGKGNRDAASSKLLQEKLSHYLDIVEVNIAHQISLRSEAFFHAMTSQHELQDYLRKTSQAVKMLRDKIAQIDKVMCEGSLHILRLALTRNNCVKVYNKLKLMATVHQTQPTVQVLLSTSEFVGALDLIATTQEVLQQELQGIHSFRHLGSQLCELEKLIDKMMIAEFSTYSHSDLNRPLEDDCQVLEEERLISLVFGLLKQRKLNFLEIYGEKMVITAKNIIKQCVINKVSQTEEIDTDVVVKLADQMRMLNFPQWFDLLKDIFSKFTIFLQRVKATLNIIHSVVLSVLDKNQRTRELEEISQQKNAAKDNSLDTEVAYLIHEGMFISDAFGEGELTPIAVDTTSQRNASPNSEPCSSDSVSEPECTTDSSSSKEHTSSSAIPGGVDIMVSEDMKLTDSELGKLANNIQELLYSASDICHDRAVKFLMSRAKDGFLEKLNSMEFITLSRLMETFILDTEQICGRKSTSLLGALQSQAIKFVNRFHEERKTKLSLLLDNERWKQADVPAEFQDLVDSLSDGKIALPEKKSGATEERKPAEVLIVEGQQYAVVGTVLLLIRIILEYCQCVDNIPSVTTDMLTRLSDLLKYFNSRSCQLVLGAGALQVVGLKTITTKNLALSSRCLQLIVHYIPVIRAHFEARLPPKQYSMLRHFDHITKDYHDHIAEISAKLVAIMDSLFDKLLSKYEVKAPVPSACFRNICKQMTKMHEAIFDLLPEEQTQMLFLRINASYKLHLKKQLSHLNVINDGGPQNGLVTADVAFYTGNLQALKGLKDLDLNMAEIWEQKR
UniProt Q96S15: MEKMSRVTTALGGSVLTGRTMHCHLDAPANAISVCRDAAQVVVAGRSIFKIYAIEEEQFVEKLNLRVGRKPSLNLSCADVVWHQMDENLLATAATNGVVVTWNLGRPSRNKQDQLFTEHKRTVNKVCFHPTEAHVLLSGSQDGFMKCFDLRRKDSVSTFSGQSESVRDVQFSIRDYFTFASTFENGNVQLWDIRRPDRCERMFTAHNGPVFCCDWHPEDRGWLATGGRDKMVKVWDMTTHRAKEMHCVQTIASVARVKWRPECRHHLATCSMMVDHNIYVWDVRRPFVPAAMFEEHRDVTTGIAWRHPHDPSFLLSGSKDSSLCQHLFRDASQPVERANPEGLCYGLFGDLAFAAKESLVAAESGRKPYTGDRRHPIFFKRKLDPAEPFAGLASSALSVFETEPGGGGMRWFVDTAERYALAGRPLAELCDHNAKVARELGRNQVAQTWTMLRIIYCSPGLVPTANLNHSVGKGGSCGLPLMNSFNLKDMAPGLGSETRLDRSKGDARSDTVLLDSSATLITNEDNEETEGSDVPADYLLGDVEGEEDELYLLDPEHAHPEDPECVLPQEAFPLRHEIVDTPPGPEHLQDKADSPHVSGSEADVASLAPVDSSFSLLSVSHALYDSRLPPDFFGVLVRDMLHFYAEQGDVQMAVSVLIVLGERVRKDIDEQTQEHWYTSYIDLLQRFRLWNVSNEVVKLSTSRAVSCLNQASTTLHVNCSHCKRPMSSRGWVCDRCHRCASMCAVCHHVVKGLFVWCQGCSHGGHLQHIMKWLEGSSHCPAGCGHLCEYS
UniProt O95497: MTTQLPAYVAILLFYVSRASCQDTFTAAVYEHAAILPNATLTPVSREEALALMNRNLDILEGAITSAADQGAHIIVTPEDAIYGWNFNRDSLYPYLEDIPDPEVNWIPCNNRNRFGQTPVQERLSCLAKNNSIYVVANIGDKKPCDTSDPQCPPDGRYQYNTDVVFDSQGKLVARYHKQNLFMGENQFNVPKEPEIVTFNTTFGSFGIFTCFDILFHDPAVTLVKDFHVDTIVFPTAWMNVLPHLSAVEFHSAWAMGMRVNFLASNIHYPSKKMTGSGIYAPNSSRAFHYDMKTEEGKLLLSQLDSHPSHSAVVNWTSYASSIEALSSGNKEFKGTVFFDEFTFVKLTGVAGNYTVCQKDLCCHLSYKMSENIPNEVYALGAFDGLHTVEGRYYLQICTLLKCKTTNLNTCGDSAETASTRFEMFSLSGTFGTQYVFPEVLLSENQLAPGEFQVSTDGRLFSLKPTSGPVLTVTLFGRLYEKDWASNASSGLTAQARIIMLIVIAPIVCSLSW
UniProt Q9HCS7: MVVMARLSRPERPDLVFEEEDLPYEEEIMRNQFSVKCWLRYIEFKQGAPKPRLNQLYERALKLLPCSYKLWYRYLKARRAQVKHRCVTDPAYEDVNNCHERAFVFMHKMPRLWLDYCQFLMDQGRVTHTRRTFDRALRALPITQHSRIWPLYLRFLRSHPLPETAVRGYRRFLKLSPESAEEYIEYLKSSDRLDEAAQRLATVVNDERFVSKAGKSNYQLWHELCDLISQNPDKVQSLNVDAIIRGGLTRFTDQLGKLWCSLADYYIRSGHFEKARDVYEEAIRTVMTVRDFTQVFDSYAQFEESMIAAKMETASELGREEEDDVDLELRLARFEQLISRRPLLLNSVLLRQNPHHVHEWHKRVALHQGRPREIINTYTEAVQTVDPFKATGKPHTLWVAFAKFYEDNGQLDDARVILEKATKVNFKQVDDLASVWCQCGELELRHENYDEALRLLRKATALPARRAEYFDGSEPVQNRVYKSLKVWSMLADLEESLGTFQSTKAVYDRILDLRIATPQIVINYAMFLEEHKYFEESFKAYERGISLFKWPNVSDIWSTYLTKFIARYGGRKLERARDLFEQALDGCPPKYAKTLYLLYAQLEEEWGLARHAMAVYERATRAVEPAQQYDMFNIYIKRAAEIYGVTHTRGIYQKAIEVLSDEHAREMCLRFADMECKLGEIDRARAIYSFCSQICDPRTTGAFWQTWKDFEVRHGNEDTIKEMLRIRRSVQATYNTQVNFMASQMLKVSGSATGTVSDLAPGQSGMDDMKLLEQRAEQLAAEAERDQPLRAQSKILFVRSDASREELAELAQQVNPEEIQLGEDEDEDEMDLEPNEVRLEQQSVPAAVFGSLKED

Key:
Assay in all cases: log2 fold change, soluble protein after heating vs DMSO (PISA); higher = thermal stabilisation; K562 cells, 10 uM, 30 min; active = over 0.2 and 3.5 SD of the protein, either way, in both replicates (recomputed)
[1] = compound: COC1=CC=C(C=C1)CN2C=CC3=C2C=C(C=C3)C(=O)NO
How it was run: (§1)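 K562 cells at 2×10^6 cells/mL were given 10 μM compound for 30 min. Aliquots then went through 3 min of heating across 48°C-58°C, were pooled, and were extracted in PBS with 0.5% NP-40 at 4°C, and the supernatant after 21,000xg for 90 min was quantified by TMTpro 16plex LC-MS/MS with channel sums equalised. Thermal stability relative to control samples, from duplicates, is given as log2 fold change.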

filanesib = compound: CON(C)C(=O)N1N=C(c2cc(F)ccc2F)S[C@@]1(CCCN)c1ccccc1 [filanesib]
How it was run: as §1

zotarolimus = compound: CO[C@H]1C[C@@H]2CC[C@@H](C)[C@@](O)(O2)C(=O)C(=O)N2CCCC[C@H]2C(=O)O[C@H]([C@H](C)C[C@@H]2CC[C@H](n3cnnn3)[C@H](OC)C2)CC(=O)[C@H](C)/C=C(\C)[C@@H](O)[C@@H](OC)C(=O)[C@H](C)C[C@H](C)/C=C/C=C/C=C/1C [zotarolimus]
How it was run: as §1

idasanutlin = compound: COc1cc(C(=O)O)ccc1NC(=O)[C@@H]1N[C@@H](CC(C)(C)C)[C@](C#N)(c2ccc(Cl)cc2F)[C@H]1c1cccc(Cl)c1F [idasanutlin]
How it was run: as §1

alisertib = compound: COc1cc(Nc2ncc3c(n2)-c2ccc(Cl)cc2C(c2c(F)cccc2OC)=NC3)ccc1C(=O)O [alisertib]
How it was run: as §1

[2] = compound: COc1cc2nc(-c3cc(F)ccc3O)nc(N[C@@H]3CNC[C@H]3C(C)(C)O)c2cc1OC
How it was run: as §1

gefitinib = compound: COc1cc2ncnc(Nc3ccc(F)c(Cl)c3)c2cc1OCCCN1CCOCC1 [gefitinib]
How it was run: as §1

[3] = compound: COc1cccc2cc(-c3nc([C@H]4CC[C@H](C(=O)O)CC4)n4ncnc(N)c34)[nH]c12
How it was run: as §1

lapatinib = compound: CS(=O)(=O)CCNCc1ccc(-c2ccc3ncnc(Nc4ccc(OCc5cccc(F)c5)c(Cl)c4)c3c2)o1 [lapatinib]
How it was run: as §1

pictilisib = compound: CS(=O)(=O)N1CCN(Cc2cc3nc(-c4cccc5[nH]ncc45)nc(N4CCOCC4)c3s2)CC1 [pictilisib]
How it was run: as §1

Measured: log2 fold change

VPS13B (UniProt Q7Z7G8)
inactive: [1] 0.019 | filanesib -0.11 | zotarolimus -0.007 | idasanutlin 0.025 | alisertib 0.07 | [2] -0.111 | gefitinib 0.019 | [3] 0.07 | lapatinib -0.018 | pictilisib 0.057

WDFY1 (UniProt Q8IWB7)
inactive: [1] -0.053 | filanesib -0.022 | zotarolimus -0.02 | idasanutlin 0.022 | alisertib -0.022 | [2] 0.063 | gefitinib 0.033 | [3] 0.07 | lapatinib -0.038 | pictilisib -0.01

WAPL isoform 3 (UniProt Q7Z5K2)
inactive: [1] 0.052 | filanesib -0.009 | zotarolimus 0.128 | idasanutlin -0.027 | alisertib 0.038 | [2] -0.273 | gefitinib -0.006 | [3] -0.003 | lapatinib 0 | pictilisib 0.027

WDTC1 (UniProt Q8N5D0)
inactive: [1] -0.062 | filanesib -0.003 | zotarolimus 0.035 | idasanutlin -0.027 | alisertib -0.169 | [2] 0.035 | gefitinib -0.135 | [3] 0.084 | lapatinib 0.097 | pictilisib 0.016

WDSUB1 (UniProt Q8N9V3)
inactive: [1] 0.031 | filanesib 0.027 | zotarolimus 0.02 | idasanutlin -0.001 | alisertib 0.022 | [2] -0.025 | gefitinib 0.008 | [3] 0.053 | lapatinib -0.03 | pictilisib 0.081

WDR46, A0A0G2JJL1
inactive: [1] -0.108 | filanesib 0.533 | alisertib -0.167 | [2] -0.134 | gefitinib 0.039 | [3] -0.207 | lapatinib 0.154

Three consecutive records from above, quoted:
WAPL isoform 3 (UniProt Q7Z5K2)
inactive: [1] 0.052 | filanesib -0.009 | zotarolimus 0.128 | idasanutlin -0.027 | alisertib 0.038 | [2] -0.273 | gefitinib -0.006 | [3] -0.003 | lapatinib 0 | pictilisib 0.027

WDTC1 (UniProt Q8N5D0)
inactive: [1] -0.062 | filanesib -0.003 | zotarolimus 0.035 | idasanutlin -0.027 | alisertib -0.169 | [2] 0.035 | gefitinib -0.135 | [3] 0.084 | lapatinib 0.097 | pictilisib 0.016

WDSUB1 (UniProt Q8N9V3)
inactive: [1] 0.031 | filanesib 0.027 | zotarolimus 0.02 | idasanutlin -0.001 | alisertib 0.022 | [2] -0.025 | gefitinib 0.008 | [3] 0.053 | lapatinib -0.03 | pictilisib 0.081

Additional entries.

WDR81 (UniProt Q562E7)
inactive: [1] -0.308 | filanesib -0.024 | idasanutlin 0.073 | gefitinib 0.403

WARS1 (UniProt G3V277)
inactive: [1] -0.163 | filanesib 0.066 | idasanutlin 0.127 | alisertib 0.04 | gefitinib 0.021 | [3] 0.145 | pictilisib 0.095

VWA3B isoform 6 (UniProt Q502W6)
inactive: [1] -0.156 | zotarolimus -0.083 | idasanutlin -0.41 | alisertib -0.081 | [2] -0.272 | gefitinib 0.008 | [3] -0.022 | lapatinib 0.079 | pictilisib 0.118

VPS28 (UniProt Q9UK41)
inactive: [1] -0.17 | filanesib -0.061 | zotarolimus 0.008 | idasanutlin -0.076 | alisertib 0.07 | [2] 0.038 | gefitinib 0.027 | [3] 0.033 | lapatinib 0.023 | pictilisib 0.059

WASHC2A (UniProt Q641Q2)
inactive: [1] 0.007 | filanesib 0.019 | zotarolimus -0.053 | idasanutlin 0.063 | alisertib -0.065 | [2] -0.011 | gefitinib -0.009 | [3] -0.005 | lapatinib 0.02 | pictilisib 0.038

VPS37B (UniProt Q9H9H4)
inactive: [1] 0.012 | filanesib 0 | idasanutlin -0.053 | alisertib 0 | [2] -0.105 | gefitinib -0.034 | [3] 0.016 | lapatinib 0.124 | pictilisib 0.032

WTAP (UniProt Q15007)
inactive: filanesib 0.053 | idasanutlin 0.269 | [2] -0.002 | lapatinib 0.087

VPS72 isoform 2 (UniProt Q15906)
inactive: filanesib 0.084 | zotarolimus -0.008 | idasanutlin 0.062 | alisertib -0.066 | [2] -0.047 | gefitinib 0.033 | [3] -0.094 | lapatinib 0.012

WDR76 (UniProt Q9H967)
inactive: idasanutlin 0.02 | [2] -0.015 | lapatinib 0.067

WARS1 (UniProt G3V3P2)
inactive: filanesib 0.087

VDAC2 (UniProt Q5JSD2)
inactive: filanesib 0.099 | alisertib -0.204 | [2] 0.118 | gefitinib -0.009 | [3] 0.129 | lapatinib -0.411 | pictilisib 0.287

WNK4 (UniProt Q96J92)
inactive: idasanutlin 0.203

WDR4 isoform 3 (UniProt P57081)
inactive: filanesib -0.007 | pictilisib 0.359

WAC (UniProt Q9BTA9)
inactive: [1] 0.115 | [2] 0.126 | lapatinib -0.13 | pictilisib 0.115

VPS54 (UniProt Q9P1Q0)
inactive: idasanutlin -0.004

VCPKMT (UniProt Q9H867)
inactive: idasanutlin -0.138

WDR13, A0A087X091
inactive: [1] 0.056 | gefitinib 0.052

WDR33 (UniProt Q9C0J8)
inactive: filanesib 0.25 | zotarolimus 0.081 | idasanutlin 0.031 | alisertib -0.062 | [2] 0.188 | gefitinib -0.074 | [3] 0.058 | lapatinib 0.087

VGF (UniProt O15240)
inactive: [2] 0.243 | lapatinib -0.032

VLDLR (UniProt P98155)
inactive: filanesib -0.033 | alisertib 0.037 | gefitinib 0.114 | [3] 0.048 | pictilisib -0.028

VDAC1 (UniProt C9JI87)
inactive: filanesib 0.001 | zotarolimus -0.217 | idasanutlin -0.018 | alisertib -0.119 | [2] 0.161 | gefitinib -0.014 | [3] -0.014 | lapatinib -0.182

WDR54 isoform 4 (UniProt Q9H977)
inactive: gefitinib 0.045

WIPI2 isoform 6 (UniProt Q9Y4P8)
inactive: zotarolimus -0.058 | idasanutlin -0.015 | [2] 0.013 | lapatinib 0.061 | pictilisib 0.19

XIAP (UniProt P98170)
inactive: filanesib 0.046 | zotarolimus 0.008 | idasanutlin 0.009 | alisertib 0.089 | [2] 0.085 | gefitinib 0.115 | [3] 0 | lapatinib -0.01 | pictilisib 0.054

WDFY2 (UniProt Q96P53)
inactive: idasanutlin 0.086

WDR19 (UniProt Q8NEZ3)
inactive: zotarolimus -0.016 | idasanutlin 0.244 | [2] 0.162 | lapatinib -0.13

VCX3B (UniProt Q9H321)
inactive: filanesib -0.011 | zotarolimus -0.074 | idasanutlin 0.009 | alisertib -0.013 | [2] 0.003 | gefitinib 0.007 | [3] -0.041 | lapatinib -0.11 | pictilisib 0.039

VIL1 (UniProt P09327)
inactive: pictilisib -0.13

WARS1 (UniProt G3V227)
inactive: zotarolimus 0.086 | idasanutlin -0.047

VPS35, A0A1W2PP10
inactive: [1] -0.154 | alisertib -0.005 | [2] -0.081 | gefitinib -0.049 | [3] 0.273 | lapatinib -0.125

WWOX (UniProt Q9NZC7)
inactive: filanesib 0.102 | zotarolimus 0.211 | alisertib -0.047 | [2] -0.162 | [3] 0.092 | lapatinib 0.038

WDR24 (UniProt Q96S15)
inactive: filanesib 0.128 | zotarolimus 0.061 | idasanutlin 0.068 | [2] 0.006 | lapatinib 0.067 | pictilisib -0.05

VNN1 (UniProt O95497)
inactive: zotarolimus -0.163

VHL (UniProt P40337)
inactive: filanesib -0.118 | zotarolimus -0.221 | idasanutlin -0.034

XAB2 (UniProt Q9HCS7)
inactive: [1] -0.174 | alisertib -0.12 | [3] 0.105

VPS13A isoform 4 (UniProt Q96RL7)
inactive: [2] 0 | lapatinib -0.06

VDAC2 (UniProt Q5JSD1)
inactive: alisertib 0.247 | [2] 0.017 | gefitinib -0.044 | [3] 0.308 | lapatinib -0.091

VEGFA (UniProt H0YBI8)
inactive: [1] -0.155 | idasanutlin 0.221 | alisertib -0.536 | [2] 0.572 | gefitinib 0.392 | [3] 0.087 | lapatinib 0.054

VIPAS39 (UniProt Q9H9C1)
inactive: filanesib 0.194 | zotarolimus -0.296 | idasanutlin -0.281 | alisertib 0.161 | [2] -0.178 | gefitinib 0.084 | [3] -0.349 | lapatinib 0.061
